Data as given in doi:10.1101/2022.10.06.511230.
Results are given in words; binding and its absence hold for the method and conditions named. Some results given as binding are weak or reduced against the parent protein; the word gives no strength.

Molecular target: T1, Syn6803 RNAP β subunit (Synechocystis sp. PCC 6803) (UniProt P77965)
T1 sequence: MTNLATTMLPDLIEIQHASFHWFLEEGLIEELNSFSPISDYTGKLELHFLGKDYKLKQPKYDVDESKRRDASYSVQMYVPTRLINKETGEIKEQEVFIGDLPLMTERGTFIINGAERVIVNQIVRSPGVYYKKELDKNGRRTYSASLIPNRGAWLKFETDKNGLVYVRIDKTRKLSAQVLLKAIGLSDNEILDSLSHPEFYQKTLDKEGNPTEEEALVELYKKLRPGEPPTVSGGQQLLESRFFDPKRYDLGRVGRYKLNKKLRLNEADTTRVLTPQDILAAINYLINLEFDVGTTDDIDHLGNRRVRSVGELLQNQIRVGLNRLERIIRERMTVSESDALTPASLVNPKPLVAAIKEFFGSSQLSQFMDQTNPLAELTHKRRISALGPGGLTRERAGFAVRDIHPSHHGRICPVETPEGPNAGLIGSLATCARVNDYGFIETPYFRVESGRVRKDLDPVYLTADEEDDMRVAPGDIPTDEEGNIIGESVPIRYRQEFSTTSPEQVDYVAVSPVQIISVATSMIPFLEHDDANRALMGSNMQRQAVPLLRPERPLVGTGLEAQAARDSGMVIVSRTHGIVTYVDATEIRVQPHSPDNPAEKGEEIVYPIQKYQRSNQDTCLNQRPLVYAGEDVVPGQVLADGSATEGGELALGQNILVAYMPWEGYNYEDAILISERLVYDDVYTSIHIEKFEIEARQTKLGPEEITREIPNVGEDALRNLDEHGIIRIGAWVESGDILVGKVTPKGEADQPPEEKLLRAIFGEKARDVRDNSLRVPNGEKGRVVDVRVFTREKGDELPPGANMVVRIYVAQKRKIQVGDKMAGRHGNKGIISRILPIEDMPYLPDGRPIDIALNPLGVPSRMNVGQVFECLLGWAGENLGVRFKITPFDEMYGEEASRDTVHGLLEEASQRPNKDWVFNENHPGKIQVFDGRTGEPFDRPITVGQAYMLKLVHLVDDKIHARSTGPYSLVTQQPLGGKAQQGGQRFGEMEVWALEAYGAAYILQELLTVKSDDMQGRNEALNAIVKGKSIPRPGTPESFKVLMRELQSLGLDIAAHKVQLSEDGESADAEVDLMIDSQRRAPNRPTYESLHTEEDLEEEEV
Assay: cryo-EM structure

B1: Syn6803 RNAP β′2 subunit (holds the SI3 insertion of the Trigger Loop) (protein, UniProt P73334 1-1317)
chain: MTFYNYTIDKGRLKKLIALAYRRYGSARCSQLADELKELGFRFATKAGVSISVDDLTIPPEKKQMLEAAEKEIRTTEERYARGEITEVERFQKVIDTWNGTSEELKDQVVVNFRKTDPLNSVYMMAFSGARGNMSQVRQLVGMRGLMADPQGEIIDLPIKTNFREGLTVTEYVISSYGARKGLVDTALRTADSGYLTRRLVDVSQDVIVREQDCGTERSLRVTAMTDGDQVKISLADRLFGRLLAKDVVGPDGEIIAKRNDEIDEALANRIAAVTDEVYVRSPLTCEAARSVCQNCYGWSLAHGHKVDLGEAVGIIAAQSIGEPGTQLTMRTFHTGGVFTGEVARQEKAPEDGTVKWGKGLSTRKVRTRHGEDAEQVEIAGDLIWKGEGKKAATQTYSLTPGSLLFVQDGQTVTAGQLMTEISLSKTQRSTERATKDVAGDLAGEVLFDRLVPEEKTDRQGNTTRIAQRGGLVWILSGEVYNLPPGAEPVVKNDEQVEVGSIMAETKLVTNDGGVVRLVSNREIEIITASVLLDQAQVKLESSGGREQYVIYTADKQRFLLKAAPGTKVQNHSIVAELIDDRYRTTTGGMIRYAGVEVAKGGRKQGYEVTKGGTLLWIPEETHEINKDISLLIVEDGQYVEAGTEVVKDIFCQSSGIVEVVQKNDILREIIIKPGDFYQDVDPGSVKIESGQLLQPGQDVFPGVTVSTLSQAEWIESPEGNGLLLRPVEEYKVFDEPAAPSQGSQNEEGGRQIELRSVQRLFYKDGDRVKSVEGAPLLSTQLVLEIYGSGNEGISHLSADIELQDDEEEDCQRLQLVILESLVLRRDQESDPLGGASKTRLLVQDGDQIPPGAVVARTEIQCKEAGTVRGIKEGQESIRRVLLERAADRLVVDLPSAPEVKPGQLLVAGQELVPGVKLEESGKVLEINGKGDNYQLVLRRARPYRVSPGAVLHIEDGDLVQRGDNLVLLVFERAKTGDIVQGLPRIEELLEARKPKEACVLARAPGVCQVEYLEDESVDIKVVEDDGTVSEYPLLPGQNAMVTDGQRIDVGHALTDGYNNPHEILDVFFSYYVDKDGCYQAALRGLQAAQKFLVNEVQTVYQSQGVDISDKHIEVIVRQMTAKVRIDDGGDTTMLPGELVELRQVEQVNEAMGITGSAPARYTPVLLGITKASLNTDSFISAASFQETTRVLTEAAIEGKSDWLRGLKENVIIGRLIPAGTGFSSHEEVLGLIETQDDIQGYMIEPIELPTTKKKASATKVKTKKVEADDDLLDDTRARAYAGTQLSQDDEEFEETYDTDEDDFDMDDDDDFGDDED
binding: binds
